Source: PubChem BioAssay AID2685 (National Center for Advancing Translational Sciences (NCATS), 2010)
In all, about 320,000 compounds went through this assay and about 2,100 (0.66%) were called active. This list was built around the results that the source calls inconclusive (neither active nor inactive); the mix of calls is not that of the screen. Calls come from the whole dose curve; as a rule, active = well fitted inhibition curve with a large enough effect in the signal ratio, with a control signal flat (not every such curve was filed as active); inconclusive = small, poorly fitted or top-dose-only effect, or effect the other way, or a change in a side signal; inactive = flat fitted curve, though single readings scatter; the % refers to the signal ratio. Potencies beside an inconclusive call are fits to weak or partial responses and may not hold up.

Experiment: qHTS Assay for Lipid Storage Modulators in Drosophila S3 Cells
Conditions: BODIPY lipid droplet fluorescence, 18-24 h, cells fed with added oleic acid; lipid storage change, negative = inhibition: at 46.1 µM (top of the series) unless noted
Outline: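 Laser-scanning cytometry quantifies lipid droplet accumulation (500–530 nm total intensity; droplet/cell object ratio) in oleic acid-fed (400 uM added) Drosophila S3 cells treated with a concentration series. 20 uM Triacsin C defined 100% inhibition.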
% is set by controls: 0 for no effect and ±100 for the full control effect; potency is the fitted concentration of half-maximal effect.

Potency, inconclusive:
CC(C)(C)C(=O)Nc1nnc(SCC(=O)Nc2nccs2)s1 29.1 µM [falling, single point]
O=C(Nc1ccc2nc(-c3ccccc3)[nH]c2c1)c1cccs1 0.517 µM [activator, full curve]
COc1ccccc1N(C)S(=O)(=O)c1ccc(C)c(C(=O)NCc2ccccn2)c1 0.0046 µM [activator, full curve, poor fit]
O=C1CCC(C(=O)Nc2ccc(Cl)cc2)N1 (stereo unspecified) 29.1 µM [activator, partial curve, poor fit]
CCN(CC)S(=O)(=O)c1ccc2[nH]c(=O)cc(C(=O)Nc3ccc(C)c(S(=O)(=O)N(CC)CC)c3)c2c1 2.06 µM [falling, full curve, poor fit]
COCc1nnc(N)s1 29.1 µM [falling, single point]
O=C(Nc1nc2c(Br)cccc2s1)C1CC1 29.1 µM [falling, single point]
O=C(O)[C@@H](c1ccccc1)N1Cc2ccccc2C1=O 6.51 µM [activator, single point]
COc1ccc(OC)c(CNC(=O)CCc2cn(C)c3ccccc23)c1 18.4 µM [falling, single point]
COc1ccc(CCn2c(C)cc(C(=O)COC(=O)c3cnccn3)c2C)cc1 0.0116 µM [activator, full curve, poor fit]
COc1ccc(-c2coc3cc(O)cc(O)c3c2=O)cc1OC 0.731 µM [falling, full curve, poor fit]
O=C(COC(=O)/C=C/c1ccc(F)cc1)Nc1ccc(Cl)cn1 0.411 µM [activator, full curve, poor fit]
Nc1cc(=O)[nH]c(SCCSc2ccc(F)cc2)n1 25.9 µM [falling, single point]
O=C(c1ccncc1)N1CCN(C(=O)c2cccs2)CC1 0.0046 µM [falling, full curve, poor fit]

Lipid storage change, negative = inhibition, inactive:
COc1ccc(NC(=S)Nc2ccccc2)cc1
O=C(COc1ccc(Cl)cc1)Nc1ccc(N2CCN(C(=O)c3ccco3)CC2)cc1
COc1ccc(N(CC(=O)Nc2ccc(C)c(C)c2)S(=O)(=O)c2c(C)n[nH]c2C)cc1

Lipid storage change, negative = inhibition, inconclusive:
O=C(NC1CC1)C1=C[C@H](c2csc3ccccc23)C[C@H](OCc2ccc(CO)cc2)O1 -0.585%
Nc1nc(SCC(=O)N2CCCc3ccccc32)n(-c2ccccc2)n1 -65.7%
CC1(C)Cc2nc3oc4c(NCc5ccccc5)ncnc4c3cc2CO1 -1.34%
O=C(CSCc1c(Cl)cccc1Cl)Nc1ccc2c(c1)OCCO2 -0.448%
Cc1ccccc1-c1nnc(-c2cccs2)o1 -5.8% [at 9.22 µM]
Cc1ccc(S(=O)(=O)/N=C2\C=C(Nc3cccc(C(=O)O)c3)C(=O)c3ccccc32)cc1 -100%
COc1cccc(C(C(=O)NC(C)(C)C)N(CCc2ccccc2)C(=O)CCC(=O)Nc2cc(C)on2)c1OC (stereo unspecified) 15.7%
Cc1c(NC(=O)C(C)OC(=O)/C=C/c2ccc3c(c2)OCO3)c(=O)n(-c2ccccc2)n1C (stereo unspecified) 4.59%
COc1cccc(NC(=O)COC(=O)C2CC(=O)N(c3ccc(C)cc3)C2)c1 (stereo unspecified) -38.3%
C=C(C)CC(NCCc1ccccc1)c1ccco1 (stereo unspecified) 0.987%
Cc1ccc(C(=O)OCC(=O)NN2C(=O)NC3(CCC(C)CC3)C2=O)cc1 (stereo unspecified)
O=C(NCC1CCCO1)C(=Cc1cccc([N+](=O)[O-])c1)C(=O)NCC1CCCO1 (stereo unspecified) -29.6%
Nc1nc2nonc2nc1N -25%
COc1ccccc1CNC(=O)c1ccc2c(c1)OCO2 11.8%
Cc1cc(C)c(C#N)c(SCC(=O)N(CCC#N)c2ccc3c(c2)OCCO3)n1
C[C@H]1CN=C(Nc2ccccc2)N1CCCC1CCCCC1 -6.27%
O=C1OC(/C(=C\Nc2ccccc2)[N+](=O)[O-])c2ccccc21 (stereo unspecified) -22.2%
CCN1CCN(c2cc(SC(C)C)nc(-c3ccc(OC)cc3)n2)CC1 10.7%
Cc1ccc(C(=O)NNC(=O)C(C)Oc2ccc3ccccc3c2)o1 (stereo unspecified)
COc1ccccc1NC(=O)Cn1cc(C(=O)C(=O)N2CCOCC2)c2ccccc21 -53.8%
Cn1c(C(=O)NN)cc2cc(Oc3ccccc3)ccc21 6.27%
O=C(N/N=C/c1ccc(OCc2ccccc2)cc1)c1ccc(O)cc1 11.5%
Cc1nc(C(=O)NC2CCOCC2)sc1C1(C)CC(c2ccccc2)=NO1 (stereo unspecified) 19%
CC(=O)N/C(=C\c1ccc(Br)s1)C(=O)O 35.4%
CC(=C/c1ccccc1)/C=N/n1c(C)n[nH]c1=S 59%
CC(=O)Oc1c(-c2ccco2)oc2ccccc2c1=O -1.66%
Clc1cc2nc(-c3cccnc3Cl)[nH]c2cc1Cl -7.79%
CCC(C)N=Cc1c(NCc2ccco2)nc2c(C)cccn2c1=O (stereo unspecified) -94.5% [at 0.0737 µM]
CCCC1(C(=O)O)NC(c2cccc(OC)c2O)C2C(=O)N(c3ccccc3)C(=O)C21 (stereo unspecified) -43.6%
CCc1ccc2nc(Nc3nc(COC)cc(=O)[nH]3)nc(C)c2c1 -79.7%
CCCCNC(=O)c1ccc(SCC(=O)N(CC)CC)c([N+](=O)[O-])c1 4.75%
COc1ccccc1CNCC(=O)Nc1ccc(C#N)cc1 32.4%
O=C(CNCc1cccs1)Nc1cc(S(=O)(=O)N2CCCC2)ccc1Cl -1.91%
Cc1ccccc1NC(=O)c1ccc(Nc2c([N+](=O)[O-])cc([N+](=O)[O-])c3ccccc23)cc1 -26.2%

Not a retest: entries from further up.
Lipid storage change, negative = inhibition, inconclusive:
CCCCNC(=O)c1ccc(SCC(=O)N(CC)CC)c([N+](=O)[O-])c1 4.75%
COc1ccccc1CNCC(=O)Nc1ccc(C#N)cc1 32.4%
